In publication PMC5131319, “Occurrence, temporal trends, and half-lives of perfluoroalkyl acids (PFAAs) in occupational workers in China” (Scientific Reports, 2016):

Assay: PFAA concentration in morning urine of occupational workers (HPLC-ESI/MS/MS)
Assay type: in vivo, human
Settings: for Detection frequency in the urine samples: all workers; for Relative abundance in the urine: of PFOS, PFHxS and PFOA
Procedure: The selected fluorochemical plant (Henxin Chemical Plant) in this study is one of the largest producers of PFOS-related chemicals in China and is located in Yingcheng, Hubei province. Perfluoroalkyl sulfonic acids (PFSAs) and perfluorotertiary amines are synthesized through an electro-chemical fluorination (ECF) process. We collected paired serum and urine samples from the occupational workers in the plant for five consecutive years, and the sampling activities were carried out in Nov. 2008, Nov. 2009, Nov. 2010, Dec. 2011, and Dec 2012, respectively. The Medical Research Ethics Committee, School of Medicine, Jianghan University, approved the ethics of this study, and all methods were performed in accordance with the relevant guidelines and regulations, moreover, all volunteers gave written informed consent. Demographic information of the donors, including gender, age, length of service, and work assignment, was collected with a questionnaire (Table S1). The sampled population included a total of 302 occupational workers, of which there were 89 female and 213 male participants. In total, 302 serum and 274 urine samples were collected.
The participants were told not to eat breakfast before the sampling, and morning urine samples and blood samples were collected. Serum was separated from the blood by centrifugation at 1100 × g at 4 °C for 10 min and then placed on ice. Serum samples were then transferred to our laboratory on the same day and stored in polypropylene containers at −20 °C until analysis.
All pre-treatment methods and instrument analysis of PFAAs in serum and urine samples are based on previous studies with minor modifications (see Supplementary Information)[3][31]. Based on the PFAA profiles in environmental matrices around the same plant in our previous study, only 3 main PFAAs, PFHxS, PFOA, and PFOS, were analyzed in the obtained serum and urine samples. Instrumental analysis of the PFAAs was performed by a HPLC-ESI/MS/MS system (HPLC: Waters 2695, MS: Waters Quattro Premier XE). The limits of detection (LODs) of PFHxS, PFOA, and PFOS were 0.020, 0.063, and 0.018 ng mL^−1 for serum samples and 0.008, 0.025, and 0.007 ng mL^−1 for urine samples, respectively. A procedural blank was performed for every batch of seven samples, and all of the blank levels were below the LODs. […] Details of quality assurance and quality control of the chemical analysis can be found in the Supplementary Information.
Urine samples were pretreated by solid phase extraction. Briefly, 1 mL of urine spiked with 5 ng of internal standard was added to a 15 - mL PP tube and diluted with 13 mL water. The solid phase extraction procedure was then performed following the previously described serum extraction procedure.

| Structure (SMILES) | Detection frequency in the urine samples | Relative abundance in the urine |
| --- | --- | --- |
| O=S(=O)(O)C(F)(F)C(F)(F)C(F)(F)C(F)(F)C(F)(F)C(F)(F)F [PFHxS, perfluorohexane sulfonate] | 90% | 31% |
| O=C(O)C(F)(F)C(F)(F)C(F)(F)C(F)(F)C(F)(F)C(F)(F)C(F)(F)F [PFOA, perfluorooctanoic acid] | 93% |  |
| O=S(=O)(O)C(F)(F)C(F)(F)C(F)(F)C(F)(F)C(F)(F)C(F)(F)C(F)(F)C(F)(F)F [PFOS, perfluorooctanesulfonate] | 91% | 19% |
